Source: PubChem BioAssay AID504467 (National Center for Advancing Translational Sciences (NCATS), 2011)
Screen size: about 330,000 compounds; about 7,700 (2.3%) were called active. Inconclusive means that the source gave no clear call. Such entries were picked first, then a sample of the others. Calls follow the shape of the dose curve; as a rule, active = well fitted inhibition curve with a large enough effect; inconclusive = small, poorly fitted or top-dose-only effect, or effect the other way; inactive = flat fitted curve, though single readings scatter. Where the call is inconclusive, the potency comes from a doubtful curve fit.

assay: qHTS screen for small molecules that inhibit ELG1-dependent DNA repair in human embryonic kidney (HEK293T) cells expressing luciferase-tagged ELG1; conditions: HEK293T ELG1-luciferase reporter, luminescence, 16 h, DNA damage induced by 5-fluorouridine; activity change, negative = inhibition: at 46.1 µM (top of the series); also: nearly all actives have a fitted effect of over 55% in size
In short: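 Reporter activity after DNA damage by 5-fluorouridine is monitored. Compound-treated cells incubate 16 hr at 37 °C, then ONE-Glo is added for 30 min before luminescence reading.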
% is scaled to controls: 0 for no effect and ±100 for the full control effect; potency is read from the fitted curve at half-maximal effect.

SMILES | Potency | activity change, negative = inhibition
CC(C)Cn1c(=O)c(C(=O)NCc2ccc3c(c2)OCO3)c(O)c2ccccc21 | inconclusive: 10.3 µM [inhibitor, partial curve] | –
O=C(NCCc1ccc(F)cc1)c1coc(=O)c(Br)c1 | inconclusive: 14.6 µM [activator, single point] | –
CCN(CC)S(=O)(=O)c1ccc(NC(=S)NC(=O)CC(C)C)cc1 | inconclusive: 7.31 µM [inhibitor, partial curve] | –
CCn1c(CCNC(=O)c2ccc(Cl)c(Cl)c2)nnc1SCCOc1ccc(OC)cc1 | inconclusive: 23.1 µM [inhibitor, single point] | –
CCc1ccc(-c2cn3c(n2)SCC3)cc1 | inconclusive: 7.3 µM [activator, partial curve] | –
Cc1cc(O)c(-c2cc(C(=O)Nc3ccc(S(=O)(=O)N4CCOCC4)cc3)[nH]n2)cc1C | inconclusive: 18.4 µM [inhibitor, single point] | –
Cn1cc(CN2CCCC(C(=O)c3ccc(-c4ccccc4)c(F)c3)C2)cn1 (configuration not stated) | – | inactive: -0.0458%
CCCCSc1nc(SCC(=O)NCc2ccco2)c2c3c(sc2n1)COC(C)(CC)C3 (configuration not stated) | inconclusive: 8.2 µM [inhibitor, single point] | –
Cc1cc2cc(CCNC(=O)c3ccc(S(=O)(=O)N4CCOCC4)cc3)c(=O)[nH]c2cc1C | inconclusive: 29.1 µM [inhibitor, single point] | –
CC1=NC(=O)C(N=Nc2cccc(O)c2)N1c1ccccc1 (configuration not stated) | inconclusive: 29.1 µM [activator, single point] | –
Clc1ccc(OCc2nnc3n2CCCCC3)c(Cl)c1 | inconclusive: 16.4 µM [activator, partial curve] | –
O[C@@H]1COC(Nc2ccc(N=Nc3ccccc3)cc2)C[C@@H]1O (some centres not stated) | inconclusive: 20.6 µM [activator, partial curve] | –
CCCC1(c2ccccc2)NC(=O)N(CC(=O)Nc2ccc3c(c2)OCCO3)C1=O (configuration not stated) | inconclusive: 3.26 µM [inhibitor, partial curve, poor fit] | –
COc1cc(C(=S)N2CCN(c3cccc(Cl)c3)CC2)ccc1O | inconclusive: 23.1 µM [inhibitor, single point] | –
COc1cc(CN2CCCN(C)CC2)c([N+](=O)[O-])cc1OC | – | inactive: -6.3%
O=C(CSc1nc2cccnc2n1Cc1ccccc1)NCc1ccco1 | – | inactive: 4.01%
Nc1nc(Nc2ccccc2F)nc(NCc2ccco2)c1[N+](=O)[O-] | inconclusive: 20.6 µM [activator, single point] | –
Cc1cc(C)cc(NC(=O)c2ccc(S(=O)(=O)NCc3cccnc3)cc2)c1 | inconclusive: 20.6 µM [inhibitor, single point] | –
S=C(NCCc1ccccc1)Nc1ccccc1 | inconclusive: 10.3 µM [activator, partial curve] | –
COc1ccc(-c2cc(C(=O)Nc3c(C)n(C)n(-c4ccccc4)c3=O)c3ccccc3n2)c(OC)c1 | active: 10.3 µM | –
Cc1ccc(N/C(N)=N/c2nc(C)cc(N3CCCCC3)n2)c(C)c1 | active: 16.4 µM | –
O=C(Cc1ccc(Br)cc1)Nc1nc2ccccc2[nH]1 | – | inactive: 5.24%
COc1ccc(-c2csc(Nc3ccc(C)cn3)n2)cc1OC | inconclusive: 29.1 µM [inhibitor, single point] | –
CCCc1cc(NCC2CCCO2)n2c(nc3ccccc32)c1C#N (configuration not stated) | active: 23.1 µM | –

SMILES | Potency | activity change, negative = inhibition
COc1ccc(CN(C)C(=O)Cc2ccc(S(=O)(=O)N3CCOCC3)s2)cc1OC | – | inactive: -3.71%
CCc1ccc(CN(C)C(=O)c2ccc3c(=O)n4c(nc3c2)CCC4)cc1 | – | inactive: 9.04%
CCC1(C)Cc2sc3c(=O)[nH]c(=S)[nH]c3c2CO1 (configuration not stated) | inconclusive: 29.1 µM [activator, single point] | –
O=C(NCC1CC1)c1ccc2c(c1)S(=O)(=O)c1cc(Cl)ccc1C2=O | – | inactive: 9.68%
CCN(CC1COc2ccccc2O1)C(=S)NC1CC2CCC1C2 (configuration not stated) | inconclusive: 23.1 µM [inhibitor, single point] | –
O=C(Nc1cccc2ncccc12)c1ccc(-c2ccc(Br)cc2)o1 | inconclusive: 3.26 µM [inhibitor, partial curve, poor fit] | –
S=c1[nH]nc(C2CC2)n1Cc1ccccc1 | – | inactive: 13%
COC(=O)c1ccc(COc2cccc(C)c2C)cc1 | inconclusive: 18.3 µM [activator, single point] | –
COc1ccc2[nH]c(C)c(CCNC(=S)Nc3ccccc3C)c2c1 | – | inactive: 0.662%
COc1cc(NC(=O)c2cc([N+](=O)[O-])ccc2NC(=O)CNCc2ccccn2)cc(OC)c1 | active: 6.51 µM | –
CN1C(=O)/C(=C/c2cccc(Cl)c2)Sc2ccc(C(=O)N3CCCC3)cc21 | inconclusive: 29.1 µM [inhibitor, single point] | –
CC(C)c1ccc(NC(=O)CCS(=O)(=O)c2cccc3nonc23)cc1 | – | inactive: 10.9%
CCOC(=O)N1CCN(C(=O)c2ccc3oc(CCCc4ccccc4)nc3c2)CC1 | inconclusive: 2.59 µM [activator, full curve] | –
Cc1ccc(NC(=O)Cc2ccsc2)cc1Cl | inconclusive: 18.3 µM [activator, single point] | –
COc1ccc(CC(=O)OCC(=O)NC2CC2)cc1 | inconclusive: 23.1 µM [activator, partial curve, poor fit] | –
Cc1ccc(NCc2ccccc2O)c(C)c1 | inconclusive: 32.6 µM [activator, partial curve, poor fit] | –
CCOc1ccc(-c2nn[nH]n2)cc1 | inconclusive: 16.4 µM [activator, single point] | –
CCN(CC)C(=O)c1ccc(S(=O)(=O)NCc2cccnc2)cc1 | inconclusive: 9.2 µM [inhibitor, partial curve] | –
O=C(Nc1cccc(C(=O)N2CCCC2)c1)c1ccccc1Cl | – | inactive: 9.6%
FC(F)C(F)(F)C1=CC(c2cccs2)=NCCN1 | – | inactive: -0.611%
O=C(CN1CCC(C(=O)c2ccc(F)cc2)CC1)Nc1ccccc1 | – | inactive: -14.2%
C=CCOc1ccccc1CNCCNC(=O)c1nonc1N | – | inactive: -0.141%
CC(NC(=O)CCc1ccccc1)c1cc2c(cc1Cl)OCCO2 (configuration not stated) | – | inactive: -23.8%

Part of the list above in order of molecular weight, descending:
SMILES | Potency | activity change, negative = inhibition
COc1ccc(-c2cc(C(=O)Nc3c(C)n(C)n(-c4ccccc4)c3=O)c3ccccc3n2)c(OC)c1 | active: 10.3 µM | –
Cc1cc(O)c(-c2cc(C(=O)Nc3ccc(S(=O)(=O)N4CCOCC4)cc3)[nH]n2)cc1C | inconclusive: 18.4 µM [inhibitor, single point] | –
O=C(CSc1nc2cccnc2n1Cc1ccccc1)NCc1ccco1 | – | inactive: 4.01%
Cn1cc(CN2CCCC(C(=O)c3ccc(-c4ccccc4)c(F)c3)C2)cn1 (configuration not stated) | – | inactive: -0.0458%
O=C(NCC1CC1)c1ccc2c(c1)S(=O)(=O)c1cc(Cl)ccc1C2=O | – | inactive: 9.68%
CCN(CC)S(=O)(=O)c1ccc(NC(=S)NC(=O)CC(C)C)cc1 | inconclusive: 7.31 µM [inhibitor, partial curve] | –
COc1cc(C(=S)N2CCN(c3cccc(Cl)c3)CC2)ccc1O | inconclusive: 23.1 µM [inhibitor, single point] | –
CCN(CC1COc2ccccc2O1)C(=S)NC1CC2CCC1C2 (configuration not stated) | inconclusive: 23.1 µM [inhibitor, single point] | –
Nc1nc(Nc2ccccc2F)nc(NCc2ccco2)c1[N+](=O)[O-] | inconclusive: 20.6 µM [activator, single point] | –
O=C(NCCc1ccc(F)cc1)c1coc(=O)c(Br)c1 | inconclusive: 14.6 µM [activator, single point] | –
CCCc1cc(NCC2CCCO2)n2c(nc3ccccc32)c1C#N (configuration not stated) | active: 23.1 µM | –
O=C(Cc1ccc(Br)cc1)Nc1nc2ccccc2[nH]1 | – | inactive: 5.24%
O[C@@H]1COC(Nc2ccc(N=Nc3ccccc3)cc2)C[C@@H]1O (some centres not stated) | inconclusive: 20.6 µM [activator, partial curve] | –
